From patent US20180344715A1, “WNT/BETA-CATENIN SIGNAL TRANSDUCTION INHIBITORS AND THEIR USE IN TREATMENT OR PREVENTION OF DISEASES AND CONDITIONS LINKED WITH SAID TRANSDUCTION” (BERGEN TEKNOLOGIOVERFORING AS, priority 2015, published 2018)
At least one compound was matched to its structure with a doubt left.

Test system: Wnt/β-catenin signaling
Experiment: TOPFlash reporter assay in 293FT cells
Type: cell-based, human
Conditions: 1 μM 6BIO together with drug at indicated concentrations, 24 hours
Description: TOPFlash assay was performed in 96-well plate. For each well, 293T cells were transfected with 0.22 μg TOPFlash (or FOPFlash with mutant TCF binding sites) and 0.02 μg pRL-SV40P using lipofectamine 3000. For co-transfection with other plasmids, 0.1 μg additional DNA was used. […] The luciferase activity was measured 24 hours later by using Dual-Glo® Luciferase Assay System (Promega, E2940) according to the recommended protocol. The TOPFlash or FOPFlash activity was normalized to Renilla luciferase signals.
TOPFlash assay was performed as described above. Briefly, for each well of a 96-well plate 293FT cells were transfected with 0.22 μg TOPFlash (or FOPFlash with mutant TCF binding sites) and 0.02 μg pRL-SV40P using lipofectamine 3000. For co-transfection with other plasmids, 0.1 μg additional DNA was used. Four hours after transfection, 293FT cells were treated with DMSO, 1 μM 6B10 and 1 μM 6B10 together with pazopanib, orlistat and topotecan at varying concentrations for 24 hours. The luciferase activity was then measured using Dual-Glo® Luciferase Assay System (Promega, E2940) according to the recommended protocol. The TOPFlash or FOPFlash activity was normalized to Renilla luciferase signals.

With Cc1ccc(Nc2nccc(N(C)c3ccc4c(C)n(C)nc4c3)n2)cc1S(N)(=O)=O [pazopanib, 5-[[4-[(2,3-Dimethyl-2H-indazol-6-yl)methylamino]-2-pyrimidinyl]amino]-2-methylbenzolsulfonamide] the “TOPFlash activity normalized to Renilla luciferase activity” value was “Wnt signaling inhibition”.
